Test results reported in publication PMC7043103.
Results are given in words; binding and its absence hold for the method and conditions named. Binding seen in cells or lysates may run through a third protein. Some results given as binding are weak or reduced against the parent protein; the word gives no strength.

The chains behind the UniProt entries cited, without tags or fusion partners. Residues count along the entry.
UniProt Q96PU5: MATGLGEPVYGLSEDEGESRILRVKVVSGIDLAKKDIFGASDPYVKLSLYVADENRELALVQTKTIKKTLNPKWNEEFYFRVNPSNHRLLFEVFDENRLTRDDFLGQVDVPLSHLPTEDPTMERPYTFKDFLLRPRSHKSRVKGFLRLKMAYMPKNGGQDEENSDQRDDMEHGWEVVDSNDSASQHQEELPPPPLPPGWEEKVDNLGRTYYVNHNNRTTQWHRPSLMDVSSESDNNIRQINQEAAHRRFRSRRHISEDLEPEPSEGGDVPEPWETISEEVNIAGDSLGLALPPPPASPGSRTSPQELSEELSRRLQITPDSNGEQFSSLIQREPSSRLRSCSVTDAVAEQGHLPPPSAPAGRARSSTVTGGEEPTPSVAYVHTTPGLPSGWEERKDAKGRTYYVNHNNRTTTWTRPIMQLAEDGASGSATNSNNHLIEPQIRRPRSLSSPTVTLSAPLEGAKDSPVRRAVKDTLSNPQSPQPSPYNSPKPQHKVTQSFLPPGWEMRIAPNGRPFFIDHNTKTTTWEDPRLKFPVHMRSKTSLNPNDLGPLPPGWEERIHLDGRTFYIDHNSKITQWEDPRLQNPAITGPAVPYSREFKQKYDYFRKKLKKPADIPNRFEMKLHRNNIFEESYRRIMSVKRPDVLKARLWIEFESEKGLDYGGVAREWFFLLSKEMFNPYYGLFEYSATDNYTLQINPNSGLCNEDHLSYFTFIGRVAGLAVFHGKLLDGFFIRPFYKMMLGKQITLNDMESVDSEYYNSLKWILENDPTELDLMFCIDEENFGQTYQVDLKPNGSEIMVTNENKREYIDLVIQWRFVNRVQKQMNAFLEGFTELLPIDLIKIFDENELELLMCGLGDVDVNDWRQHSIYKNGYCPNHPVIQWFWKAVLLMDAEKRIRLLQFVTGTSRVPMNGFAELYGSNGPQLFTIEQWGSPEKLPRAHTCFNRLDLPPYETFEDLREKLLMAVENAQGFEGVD
UniProt Q9BXM7, residues 78-581: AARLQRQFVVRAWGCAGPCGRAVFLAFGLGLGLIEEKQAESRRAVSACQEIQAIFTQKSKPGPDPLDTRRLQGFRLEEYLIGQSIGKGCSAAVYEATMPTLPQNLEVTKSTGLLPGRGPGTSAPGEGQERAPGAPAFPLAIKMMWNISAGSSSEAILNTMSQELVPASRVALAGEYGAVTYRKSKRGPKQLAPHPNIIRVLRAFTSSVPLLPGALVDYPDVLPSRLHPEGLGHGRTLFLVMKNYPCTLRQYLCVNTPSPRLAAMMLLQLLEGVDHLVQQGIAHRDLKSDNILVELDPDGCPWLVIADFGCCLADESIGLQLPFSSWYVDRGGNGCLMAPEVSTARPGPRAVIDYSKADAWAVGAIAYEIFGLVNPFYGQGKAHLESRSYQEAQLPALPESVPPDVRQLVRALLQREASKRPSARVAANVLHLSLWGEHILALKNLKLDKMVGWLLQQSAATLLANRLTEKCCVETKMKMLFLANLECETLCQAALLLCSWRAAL

What was measured:
NEDD4L-HA = NEDD4L-HA (UniProt Q96PU5); experiment: co-IP; PINK1-Flag and NEDD4L-HA transfected into SH-SY5Y, co-immunoprecipitation assay
[1] = molecular target: NEDD4L (neuronal precursor cell-expressed developmentally downregulated 4-like), endogenous (human (endogenous in SH-SY5Y)) (UniProt Q96PU5); experiment: co-IP; SH-SY5Y lysates immunoprecipitated with an anti-NEDD4L antibody, western blotting with an anti-PINK1 antibody; endogenous proteins; also done in cells transfected with NEAT1 (the interaction was promoted)

Substance | binding (NEDD4L-HA) | binding [1]
PINK1-Flag (from UniProt Q9BXM7 78-581) | binds | 
PTEN-induced putative kinase 1 (PINK1), endogenous (from UniProt Q9BXM7 78-581) |  | binds
